Test results: PubChem BioAssay (NCATS)
What follows is the remainder of the data, with few or none of the hits. Inconclusive results are not listed. Calls of active or inactive are those of the source. The call rests on the fitted dose curve; in most records, active means well fitted curve in the direction sought with a large enough effect; inconclusive means small, poorly fitted or top-dose-only effect, or another doubt; inactive means no such curve, though single readings can be large; an effect the other way counts as inactive or inconclusive.

By UniProt entry, the sequences of proteins in these tests, tags left out. Where a name states a change or a piece, a line headed by the entry shows the natural chain unless it says otherwise.
UniProt Q99828: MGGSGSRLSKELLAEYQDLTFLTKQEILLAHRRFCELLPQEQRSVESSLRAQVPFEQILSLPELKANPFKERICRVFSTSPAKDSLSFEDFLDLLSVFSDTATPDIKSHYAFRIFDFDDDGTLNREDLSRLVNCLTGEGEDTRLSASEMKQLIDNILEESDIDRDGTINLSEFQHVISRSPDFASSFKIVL
UniProt P07203, whole entry, looked up: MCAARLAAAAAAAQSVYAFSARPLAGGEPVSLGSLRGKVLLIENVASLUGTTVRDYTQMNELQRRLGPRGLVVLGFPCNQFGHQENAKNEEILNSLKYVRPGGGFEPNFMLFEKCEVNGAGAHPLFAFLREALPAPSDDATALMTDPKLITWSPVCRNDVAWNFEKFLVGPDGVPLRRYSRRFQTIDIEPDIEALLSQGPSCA
UniProt P36969, whole entry, looked up: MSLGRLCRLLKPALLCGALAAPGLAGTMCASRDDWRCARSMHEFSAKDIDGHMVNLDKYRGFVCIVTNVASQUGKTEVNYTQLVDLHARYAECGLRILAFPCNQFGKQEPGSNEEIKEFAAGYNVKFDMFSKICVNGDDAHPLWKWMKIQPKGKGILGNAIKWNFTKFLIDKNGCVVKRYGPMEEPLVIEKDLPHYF

Columns and labels:
[1] = qHTS of pediatric cancer cell lines to identify multiple opportunities for drug repurposing: Primary screen for NB1643 cells (AID 1347099); conditions: NB1643 neuroblastoma viability, CellTiter-Glo luminescence, 48 h; at 46 µM (top of the series);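 further: plate controls were DMSO neutral control for no effect and bortezomib positive control for full effect; nearly all actives have a fitted effect of over 50% in size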
Procedure, shortened: (§1)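 Phenotypic viability qHTS, 48 h compound exposure, CellTiter-Glo luminescence read-out; multi-concentration dosing so that potency and efficacy derive directly from the primary screen's curves.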

[2] = qHTS of pediatric cancer cell lines to identify multiple opportunities for drug repurposing: Primary screen for LAN-5 cells (AID 1347100); conditions: LAN-5 neuroblastoma viability, CellTiter-Glo luminescence, 48 h; at 46 µM (top of the series);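 further: plate controls were DMSO neutral control for no effect and bortezomib positive control for full effect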
Procedure, shortened: (§2)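 Cells (500-1,000/well) in growth media were settled 5 h at 37 degrees C, then given compounds for 48 h. Viability was read as CellTiter-Glo luminescence. Primary runs used MIPE at 11 points (0.78 nM-46 µM) and NPC at 8 points (0.59 nM-46 µM); follow-ups used 11 points.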

[3] = qHTS of pediatric cancer cell lines to identify multiple opportunities for drug repurposing: Primary screen for BT-12 cells (AID 1347101); conditions: BT-12 viability, CellTiter-Glo luminescence, 48 h; at 57.3 µM (top of the series);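 further: plate controls were DMSO for no effect and bortezomib positive control for full effect; nearly all actives have a fitted effect of over 25% in size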
Procedure, shortened: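 Cells (500-1,000/well) rested 5 h, then received compounds for 48 h; metabolically active cells were measured by CellTiter-Glo luminescence. Final concentrations spanned up to 46 µM (MIPE, 11-point) or 0.59 nM-46 µM (NPC, 8-point) in primary screens, 11-point in follow-ups.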

[4] = qHTS of pediatric cancer cell lines to identify multiple opportunities for drug repurposing: Primary screen for Rh18 cells (AID 1347102); conditions: Rh18 rhabdomyosarcoma viability, CellTiter-Glo luminescence, 48 h; at 46 µM (top of the series); further: on the % scale 0 is the no-effect control and ±100 the full control effect; nearly all actives have a fitted effect of over 65% in size
Procedure, shortened: as §2

[5] = qHTS of pediatric cancer cell lines to identify multiple opportunities for drug repurposing: Primary screen for RD cells (AID 1347104); conditions: RD rhabdomyosarcoma viability, CellTiter-Glo luminescence, 48 h; at 46 µM (top of the series);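 further: plate controls were DMSO for no effect and bortezomib for full effect; nearly all actives have a fitted effect of over 55% in size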
Procedure, shortened: as §1

[6] = qHTS of pediatric cancer cell lines to identify multiple opportunities for drug repurposing: Primary screen for MG 63 (6-TG R) cells (AID 1347105); conditions: MG 63 (6-TG R) viability, CellTiter-Glo, 48 h; at 46 µM (top of the series); further: on the % scale 0 is the no-effect control and ±100 the full control effect; nearly all actives have a fitted effect of over 50% in size
Procedure, shortened: as §1

[7] = qHTS of pediatric cancer cell lines to identify multiple opportunities for drug repurposing: Primary screen for control Hh wild type fibroblast cells (AID 1347106); conditions: Hh wild-type fibroblast viability, CellTiter-Glo luminescence, 48 h; at 46 µM (top of the series);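 further: on the % scale 0 is the no-effect control and ±100 the full control effect; a drop in luminescence marks cytotoxicity and a rise apparent proliferation; nearly all actives have a fitted effect of over 55% in size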
Procedure, shortened: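 Viability after 48 h compound treatment at 37C, 500-1,000 cells/well, read as ATP luminescence with CellTiter-Glo. Primary screens used 11-point (MIPE, 0.78 nM-46 µM) or 8-point (NPC, 0.59 nM-46 µM) final concentrations; follow-up screens used 11-point dilutions.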

[8] = qHTS of pediatric cancer cell lines to identify multiple opportunities for drug repurposing: Primary screen for Rh30 cells (AID 1347107); conditions: Rh30 rhabdomyosarcoma viability, CellTiter-Glo luminescence, 48 h; at 46 µM (top of the series); further: on the % scale 0 is the no-effect control and ±100 the full control effect; nearly all actives have a fitted effect of over 75% in size
Procedure, shortened: as §2

[9] = qHTS of pediatric cancer cell lines to identify multiple opportunities for drug repurposing: Primary screen for Rh41 cells (AID 1347108); conditions: Rh41 rhabdomyosarcoma viability, CellTiter-Glo luminescence, 48 h; at 46 µM (top of the series);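 further: luminescence drop marks cytotoxic hits; nearly all actives have a fitted effect of over 70% in size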
Procedure, shortened: as §1

[10] = qHTS to identify inhibitors of the type 1 interferon - major histocompatibility complex class I in skeletal muscle: primary screen against the NCATS Pharmaceutical Collection (AID 1347407); conditions: human skeletal muscle cells, IFN-b-induced MHC-I HiBiT luminescence, 24 h; at 45.9 µM (top of the series);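 further: luminescence of HiBiT knocked into endogenous HLA-B as interferon-induced MHC class I level; on the % scale 0 is the no-effect control and ±100 the full control effect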
Procedure, shortened: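 Luminescence from HiBiT-tagged endogenous HLA-B*08:01 served as the read-out of IFN-beta-induced MHC class I in CRISPR-engineered C25cl48 myoblasts. Cells received 4 ng/ml IFN-beta plus compound (high final 46 uM, […]) for 24 h.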

[11] = target: Calcium and integrin-binding protein 1 (Homo sapiens) (UniProt Q99828); test: Primary qHTS for Identification of Calcium Integrin Binding Protein 1 (CIB1) Competitor (AID 1508620); conditions: CIB1-GST / FITC-alphaIIb peptide fluorescence polarization; at 114 µM (top of the series);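 further: GST tagged CIB1 binding a fluorescein labelled alphaIIb integrin peptide tracer; top concentration of the series differs between compounds; on the % scale 0 is the no-effect control and ±100 the full control effect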
Procedure, shortened: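 Fluorescence polarization competition: CIB1-GST (1 uM final) preincubated with compound 15 min at room temperature, then FITC-labeled alphaIIb peptide (100 nM final) added for another 15 min. Polarization read at Ex 480/Em 540.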

[12] = target: Glutathione peroxidase 1 (Homo sapiens) (UniProt P07203); test: Primary qHTS Assay for Inhibitors of Recombinant Selenoprotein Glutathione Peroxidase 1 (GPX1) (AID 1845191); conditions: recombinant GPX1, GR-coupled NADPH fluorescence, 15 min; at 48.8 µM (top of the series); further: on the % scale 0 is the no-effect control and ±100 the full control effect; nearly all actives have a fitted effect of over 65% in size
Procedure, shortened: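 Recombinant GPX1 (10 nM final) was preincubated with compound for 30 min at room temperature, then reacted with 1 mM GSH, 0.5 mM CHP, 0.5 mM NADPH and 100 nM glutathione reductase; NADPH fluorescence (340/450 nm) was read at 0 and 15 min.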

[13] = target: Phospholipid hydroperoxide glutathione peroxidase GPX4 (Homo sapiens) (UniProt P36969); test: Primary qHTS Assay for Inhibitors of Recombinant Selenoprotein Glutathione Peroxidase 4 (GPX4) (AID 1845192); conditions: recombinant GPX4, GR-coupled NADPH fluorescence, 15 min; at 50 µM (top of the series); further: on the % scale 0 is the no-effect control and ±100 the full control effect; nearly all actives have a fitted effect of over 65% in size
Procedure, shortened: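 GR-coupled readout: 100 nM GR, 1 mM GSH, 0.5 mM NADPH; NADPH fluorescence (ex 340/em 450 nm) read at t=0 and after 15 min RT. GPX4 200 nM, preincubated 30 min with compound; substrate 0.5 mM CHP.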

[14] = qHTS profiling for inhibitors of Plasmodium falciparum proliferation (AID 504749);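 further: 0% = DMSO vehicle and full inhibition = artemisinin control; nearly all actives have a fitted effect of over 60% in size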; conditions: P. falciparum in erythrocytes, SYBR Green DNA, 72 h, at 28.7 µM (top of the series)
Procedure, shortened: (§3)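 Parasite proliferation within erythrocytes, 72 h exposure. Endpoint: SYBR Green I fluorescence after overnight lysis at room temperature. Controls: 0.29 uM artemisinin, DMSO.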

[15] = test system: 3D7; test: as above; conditions: P. falciparum in erythrocytes, SYBR Green DNA, 72 h; at 28.7 µM (top of the series)
Procedure, shortened: as §3

[16] = test system: 7G8; test: as above; conditions: P. falciparum in erythrocytes, SYBR Green DNA, 72 h; at 28.7 µM (top of the series)
Procedure, shortened: as §3

[17] = test system: AA1029; test: as above; conditions: P. falciparum in erythrocytes, SYBR Green DNA, 72 h; at 28.7 µM (top of the series)
Procedure, shortened: as §3

[18] = test system: AS120; test: as above; conditions: P. falciparum in erythrocytes, SYBR Green DNA, 72 h; at 28.7 µM (top of the series)
Procedure, shortened: as §3

[19] = test system: ATS189; test: as above; conditions: P. falciparum in erythrocytes, SYBR Green DNA, 72 h; at 28.7 µM (top of the series)
Procedure, shortened: as §3

[20] = test system: ATS95; test: as above; conditions: P. falciparum in erythrocytes, SYBR Green DNA, 72 h; at 28.7 µM (top of the series)
Procedure, shortened: as §3

CC(C)(C)c1ccc(O)cc1
inactive: activity change, negative = cytotoxic [1] 6.8% | activity change, negative = cytotoxic [2] 30.7% | activity change, negative = cytotoxic [3] 6.4% | activity change, negative = cytotoxic [4] 10.4% | activity change, negative = cytotoxic [5] 10.2% | activity change, negative = cytotoxic [6] -6.54% | activity change, negative = cytotoxic [7] 0.94% | activity change, negative = cytotoxic [8] 26.2% | activity change, negative = cytotoxic [9] 32.8% | activity change, negative = inhibition [10] -6.46% | activity change, negative = inhibition [11] 2.09% | activity, negative = inhibition [12] -14.5% | activity change, negative = inhibition [13] -12.6% | activity, negative = inhibition ([14]; parasite line A) 2.69% | activity, negative = inhibition ([14]; parasite line B) 20.7% | activity, negative = inhibition [15] 9.58% | activity, negative = inhibition [16] -1.23% | activity, negative = inhibition [17] -5.4% | activity, negative = inhibition [18] -3.49% | activity, negative = inhibition [19] 1.2% | activity, negative = inhibition [20] -2.33%
